Laboratory results published in the supplement of paper PMC7661543.
The effect of the compound repeats well; differences between the knockouts mostly do not.

Tested on: MDA-MB-231
Test: relative cell number vs DMSO control (72 h) (% of DMSO); higher = less growth inhibition (more cells)
Protocol: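 QMAP-Seq: a pool of 5 breast cancer cell lines (ZR-75-1, SKBR3, HCC-38, MDA-MB-231, BT-20), each carrying 12 doxycycline-inducible Cas9 sgRNA perturbations (11 knockouts plus non-targeting sgNT), was treated with compounds for 72 h at four 10-fold doses (10 nM-10 uM or 1 nM-1 uM range). Barcodes were amplified and sequenced, and cell number was interpolated from 293T spike-in standard curves. The result is expressed as % of the median of DMSO wells. Two biological replicates.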

O=C(CCc1ccc(O)cc1)c1c(O)cc(O)cc1O [Phloretin]
Details | relative cell number
sgRNA knockout: sgATF3, 10 nM | 88.5
sgRNA knockout: sgATF3, 100 nM | 112.94
sgRNA knockout: sgATF3, 1000 nM | 125
sgRNA knockout: sgATF3, 10000 nM | 105
sgRNA knockout: sgATF4, 10 nM | 112
sgRNA knockout: sgATF4, 100 nM | 140.8
sgRNA knockout: sgATF4, 1000 nM | 125
sgRNA knockout: sgATF4, 10000 nM | 143
sgRNA knockout: sgATF6, 10 nM | 86.9
sgRNA knockout: sgATF6, 100 nM | 128
sgRNA knockout: sgATF6, 1000 nM | 126
sgRNA knockout: sgATF6, 10000 nM | 109
sgRNA knockout: sgATG7, 10 nM | 97.6
sgRNA knockout: sgATG7, 100 nM | 94.7
sgRNA knockout: sgATG7, 1000 nM | 118
sgRNA knockout: sgATG7, 10000 nM | 102
sgRNA knockout: sgERN1, 10 nM | 129.2
sgRNA knockout: sgERN1, 100 nM | 94.8
sgRNA knockout: sgERN1, 1000 nM | 121
sgRNA knockout: sgERN1, 10000 nM | 115
sgRNA knockout: sgHSF1, 10 nM | 94.5
sgRNA knockout: sgHSF1, 100 nM | 111.7
sgRNA knockout: sgHSF1, 1000 nM | 92.3
sgRNA knockout: sgHSF1, 10000 nM | 86
sgRNA knockout: sgHSF2, 10 nM | 98.9
sgRNA knockout: sgHSF2, 100 nM | 90.8
sgRNA knockout: sgHSF2, 1000 nM | 97.4
sgRNA knockout: sgHSF2, 10000 nM | 102
sgRNA knockout: sgKEAP1, 10 nM | 110
sgRNA knockout: sgKEAP1, 100 nM | 97.1
sgRNA knockout: sgKEAP1, 1000 nM | 116
sgRNA knockout: sgKEAP1, 10000 nM | 112
sgRNA knockout: sgNFE2L2, 10 nM | 90.2
sgRNA knockout: sgNFE2L2, 100 nM | 83.54
sgRNA knockout: sgNFE2L2, 1000 nM | 110
sgRNA knockout: sgNFE2L2, 10000 nM | 100
sgRNA knockout: sgSLC35F2, 10 nM | 77.4
sgRNA knockout: sgSLC35F2, 100 nM | 92.8
sgRNA knockout: sgSLC35F2, 1000 nM | 125
sgRNA knockout: sgSLC35F2, 10000 nM | 115
sgRNA knockout: sgXBP1, 10 nM | 100
sgRNA knockout: sgXBP1, 100 nM | 113
sgRNA knockout: sgXBP1, 1000 nM | 106
sgRNA knockout: sgXBP1, 10000 nM | 123

Nc1ccn([C@@H]2O[C@H](CO)[C@@H](O)C2(F)F)c(=O)n1 [Gemcitabine]
Details | relative cell number
sgRNA knockout: sgATF3, 10 nM | 29.4
sgRNA knockout: sgATF3, 100 nM | 15.8
sgRNA knockout: sgATF3, 1000 nM | 12.2
sgRNA knockout: sgATF3, 10000 nM | 18.1
sgRNA knockout: sgATF4, 10 nM | 23.8
sgRNA knockout: sgATF4, 100 nM | 8.42
sgRNA knockout: sgATF4, 1000 nM | 23.3
sgRNA knockout: sgATF4, 10000 nM | 14.7
sgRNA knockout: sgATF6, 10 nM | 23.1
sgRNA knockout: sgATF6, 100 nM | 13.2
sgRNA knockout: sgATF6, 1000 nM | 12.9
sgRNA knockout: sgATF6, 10000 nM | 15.1
sgRNA knockout: sgATG7, 10 nM | 27.68
sgRNA knockout: sgATG7, 100 nM | 14.5
sgRNA knockout: sgATG7, 1000 nM | 14.9
sgRNA knockout: sgATG7, 10000 nM | 12.32
sgRNA knockout: sgERN1, 10 nM | 23.5
sgRNA knockout: sgERN1, 100 nM | 12.9
sgRNA knockout: sgERN1, 1000 nM | 16.4
sgRNA knockout: sgERN1, 10000 nM | 14.8
sgRNA knockout: sgHSF1, 10 nM | 23
sgRNA knockout: sgHSF1, 100 nM | 15.5
sgRNA knockout: sgHSF1, 1000 nM | 13.2
sgRNA knockout: sgHSF1, 10000 nM | 14.5
sgRNA knockout: sgHSF2, 10 nM | 25.6
sgRNA knockout: sgHSF2, 100 nM | 12.8
sgRNA knockout: sgHSF2, 1000 nM | 14.7
sgRNA knockout: sgHSF2, 10000 nM | 14.8
sgRNA knockout: sgKEAP1, 10 nM | 27.1
sgRNA knockout: sgKEAP1, 100 nM | 15.9
sgRNA knockout: sgKEAP1, 1000 nM | 14.8
sgRNA knockout: sgKEAP1, 10000 nM | 13.5
sgRNA knockout: sgNFE2L2, 10 nM | 23.2
sgRNA knockout: sgNFE2L2, 100 nM | 16.2
sgRNA knockout: sgNFE2L2, 1000 nM | 16.2
sgRNA knockout: sgNFE2L2, 10000 nM | 12.1
sgRNA knockout: sgSLC35F2, 10 nM | 23.9
sgRNA knockout: sgSLC35F2, 100 nM | 16.9
sgRNA knockout: sgSLC35F2, 1000 nM | 11.1
sgRNA knockout: sgSLC35F2, 10000 nM | 12.4
sgRNA knockout: sgXBP1, 10 nM | 23.5
sgRNA knockout: sgXBP1, 100 nM | 16.6
sgRNA knockout: sgXBP1, 1000 nM | 17.3
sgRNA knockout: sgXBP1, 10000 nM | 16.4

Cc1cn(-c2cc(NC(=O)c3ccc(C)c(Nc4nccc(-c5cccnc5)n4)c3)cc(C(F)(F)F)c2)cn1 [Nilotinib]
Details | relative cell number
sgRNA knockout: sgATF3, 10 nM | 92.6
sgRNA knockout: sgATF3, 100 nM | 88.1
sgRNA knockout: sgATF3, 1000 nM | 96.1
sgRNA knockout: sgATF3, 10000 nM | 61.5
sgRNA knockout: sgATF4, 10 nM | 95.7
sgRNA knockout: sgATF4, 100 nM | 101
sgRNA knockout: sgATF4, 1000 nM | 91.4
sgRNA knockout: sgATF4, 10000 nM | 59.8
sgRNA knockout: sgATF6, 10 nM | 67
sgRNA knockout: sgATF6, 100 nM | 93.1
sgRNA knockout: sgATF6, 1000 nM | 110
sgRNA knockout: sgATF6, 10000 nM | 60.4
sgRNA knockout: sgATG7, 10 nM | 84.3
sgRNA knockout: sgATG7, 100 nM | 90.1
sgRNA knockout: sgATG7, 1000 nM | 101
sgRNA knockout: sgATG7, 10000 nM | 53.5
sgRNA knockout: sgERN1, 10 nM | 74.1
sgRNA knockout: sgERN1, 100 nM | 89.9
sgRNA knockout: sgERN1, 1000 nM | 82.3
sgRNA knockout: sgERN1, 10000 nM | 62.8
sgRNA knockout: sgHSF1, 10 nM | 85
sgRNA knockout: sgHSF1, 100 nM | 87
sgRNA knockout: sgHSF1, 1000 nM | 61.8
sgRNA knockout: sgHSF1, 10000 nM | 76.7
sgRNA knockout: sgHSF2, 10 nM | 84.9
sgRNA knockout: sgHSF2, 100 nM | 106
sgRNA knockout: sgHSF2, 1000 nM | 86.3
sgRNA knockout: sgHSF2, 10000 nM | 60.7
sgRNA knockout: sgKEAP1, 10 nM | 89.9
sgRNA knockout: sgKEAP1, 100 nM | 94.1
sgRNA knockout: sgKEAP1, 1000 nM | 69.9
sgRNA knockout: sgKEAP1, 10000 nM | 58.9
sgRNA knockout: sgNFE2L2, 10 nM | 68.9
sgRNA knockout: sgNFE2L2, 100 nM | 98.1
sgRNA knockout: sgNFE2L2, 1000 nM | 85.5
sgRNA knockout: sgNFE2L2, 10000 nM | 53.2
sgRNA knockout: sgSLC35F2, 10 nM | 100
sgRNA knockout: sgSLC35F2, 100 nM | 108
sgRNA knockout: sgSLC35F2, 1000 nM | 83.6
sgRNA knockout: sgSLC35F2, 10000 nM | 69.2
sgRNA knockout: sgXBP1, 10 nM | 95.2
sgRNA knockout: sgXBP1, 100 nM | 113.7
sgRNA knockout: sgXBP1, 1000 nM | 89.7
sgRNA knockout: sgXBP1, 10000 nM | 53.6
